These are yes or no findings as the source states them, for the method shown. Some results given as binding are weak or reduced against the parent protein; the word gives no strength.
Target: T1, Polo (UniProt P52304)
T1 sequence: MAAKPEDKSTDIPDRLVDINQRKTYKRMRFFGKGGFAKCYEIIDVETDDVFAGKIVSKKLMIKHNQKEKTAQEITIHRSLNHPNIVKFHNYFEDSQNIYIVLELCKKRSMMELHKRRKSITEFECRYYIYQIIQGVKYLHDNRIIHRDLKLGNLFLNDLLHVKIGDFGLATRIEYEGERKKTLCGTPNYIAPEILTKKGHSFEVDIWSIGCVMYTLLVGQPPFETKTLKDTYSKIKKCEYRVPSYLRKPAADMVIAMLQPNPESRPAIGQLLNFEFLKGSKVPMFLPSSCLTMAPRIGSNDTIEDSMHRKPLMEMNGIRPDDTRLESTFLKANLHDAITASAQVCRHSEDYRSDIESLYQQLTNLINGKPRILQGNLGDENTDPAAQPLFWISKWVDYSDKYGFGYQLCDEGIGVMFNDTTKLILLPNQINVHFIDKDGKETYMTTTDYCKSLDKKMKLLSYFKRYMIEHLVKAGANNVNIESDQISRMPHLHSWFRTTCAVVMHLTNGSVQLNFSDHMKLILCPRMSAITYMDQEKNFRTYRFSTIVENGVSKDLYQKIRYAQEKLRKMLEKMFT
Test: in vitro binding study; in vitro binding studies with Polo; methods in File S1 (not shown)

binding: binds
B1: MEI-S332 T331-D (phosphomimetic version of the Polo box-binding domain) (protein, UniProt Q24141 1-401)
chain: MGSKVEQQYKLLNAELMDQVQKQRLEIGEYRKRVISLEREIMDIREEHVLQNHRQRMENISIVRSLMLSLNVDSDSLAVRQEPAPAAQINRPSGPRRSSREICKDMRRTCALARTTRPISPRRSSSVTSTVSSTSRRSSAEVQSEVVTTRIPEDRRANKPTPPPRRPAELVFDEDDSDDDFDEAVSPVEETQTEQNEENNRLFSIIEENGSEGESTDSSSSCEAIYCDTTFESSPPNAQVTVTPSGRALREVDTNIPVAVSLSRGKETGKGSWLAISVAVEDSPQEPSIQCPRLAVTRPSQSSGIFPDVNGLTPRRSLFNGIGKMAGSTSDPKSFLVEEMPSIRTRSRTAANKKSENTDMSSSFCNNSARPSRSCRPTSLVEPSLKNKLRNGSKGKAKAKK
